# Primary screen of a compound library

Sequences of proteins named here, by UniProt entry; tags and fusion partners are left off. Residues count along the entry.
UniProt Q8IDJ8, 1-583: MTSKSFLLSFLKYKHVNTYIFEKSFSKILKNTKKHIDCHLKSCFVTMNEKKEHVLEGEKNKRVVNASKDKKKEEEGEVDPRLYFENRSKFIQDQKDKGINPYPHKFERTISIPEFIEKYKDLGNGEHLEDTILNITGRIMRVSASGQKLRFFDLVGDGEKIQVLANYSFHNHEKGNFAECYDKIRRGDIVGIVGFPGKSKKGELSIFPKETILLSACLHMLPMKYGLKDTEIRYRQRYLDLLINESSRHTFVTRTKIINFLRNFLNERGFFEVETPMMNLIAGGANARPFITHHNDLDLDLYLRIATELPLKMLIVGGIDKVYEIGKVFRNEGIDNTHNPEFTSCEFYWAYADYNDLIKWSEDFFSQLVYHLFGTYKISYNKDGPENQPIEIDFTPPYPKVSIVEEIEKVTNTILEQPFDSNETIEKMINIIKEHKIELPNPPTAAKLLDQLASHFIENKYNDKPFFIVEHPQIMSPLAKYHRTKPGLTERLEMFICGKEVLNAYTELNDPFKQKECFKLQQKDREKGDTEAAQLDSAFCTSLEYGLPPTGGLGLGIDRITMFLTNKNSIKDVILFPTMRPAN

The values are deposited in ChEMBL (CHEMBL3988442, “University of Dundee, Small-Polar-MMV Screening Library” (2021)).

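Enzyme assay of the cytosolic lysyl-tRNA synthetase in 384-well plates, read by luminescence. Target: Lysine-tRNA ligase, Plasmodium falciparum 3D7 (UniProt Q8IDJ8). Concentration: 30 µM. Direction is inferred from only a few compounds that gave an IC50; most scored high, so higher reads as stronger inhibition. About 69,000 compounds were tested under these conditions; 0.071% (about 49) showed 50% or more at least once.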

Each number is a percent effect as filed. The record does not define 0% and 100%; most values in the screen are far below 50% and negative numbers occur (in some assays of this library far below -100). This is an unselected part of the compounds tested.

SMILES	Percent Effect
Cc1cccc(NC(=O)[C@@H]2CCCN2CC(=O)Nc2ccccc2)n1	6.199%
Cc1[nH]c2c(F)cccc2c1CC(=O)NCCCc1csc(N)n1	1.655%
CN(c1cccnc1N1CCCC1)S(=O)(=O)c1cccnc1	2.259%
c1cnnc(N2CCCC2CNCc2nc(-c3cccs3)no2)c1 (stereo not shown)	-2.697%
OCCn1ncc2c1CN(CC1CCOc3ccccc3C1)C2 (stereo not shown)	7.173%
O=c1c2ccccc2nc2n1CCC2O (stereo not shown)	5.908%
c1ccc(C2Cn3ccnc3CN2Cc2ncc[nH]2)cc1 (stereo not shown)	0.1467%
OC1(CNCc2ccc(F)c(C(F)(F)F)c2)CCSCC1	3.472%
Cc1cccc(CN2CC[C@@H]3[C@@H]2CCN3C(=O)c2cc(C)oc2C)n1	6.381%
Cn1ccnc1C(=O)N[C@@H]1CN(Cc2cccs2)[C@@H]2CCCO[C@@H]21	3.598%
CC(C)N1CCC(CC(=O)N2CCN(Cc3nccn3C)CC2)CC1	3.865%
NC(=O)CN1CCCC(C(=O)N2CCC(O)(c3ccccc3)CC2)C1 (stereo not shown)	-0.8828%
c1ccc(COC[C@H]2CC[C@H]3[C@H](CCN3Cc3ccccn3)O2)nc1	0.112%
Cc1c[nH]c(CN2CCOC(c3ccc(F)cc3)C2)c(C)c1=O (stereo not shown)	0.08318%
CO[C@@H]1CC[C@H]2[C@H]1OCCN2C(=O)c1ccc(C)nc1	4.24%
CN(CCN1CCOCC1)C(=O)CCCOCCc1ccccc1	-1.067%
CCc1nnsc1C(=O)NCc1nnc2n1CCCCC2	6.948%
O=c1c2sccc2nc2n1CCN(Cc1ccccc1C(F)(F)F)CC2	2.67%
Cc1nc(O)cc(C2CCN(C(=O)c3ccsc3)CC2)n1	2.444%
Cc1nnc(C2CCN(c3ccc(F)cc3)CC2)o1	2.675%
NC(=O)CC1CCCCN1C(=O)c1cccc(C(F)(F)F)c1 (stereo not shown)	0.2499%
Cc1cc(C)n(C2CN(CC(=O)NC(C3CC3)C3CC3)C2)n1	-1.89%
CNc1cncc(C2CCCN2S(=O)(=O)c2ccc(F)cc2)n1 (stereo not shown)	1.252%
Cc1ccc2cc(CN(C)Cc3nccs3)c(=O)[nH]c2c1	0.3811%
CCCN1CCC[C@]2(CCC(=O)N2Cc2ccncc2)[C@H]1CC	1.334%
CCS(=O)(=O)N(C)C1CCN(c2cccc(F)c2C(C)=O)CC1	5.113%
Cc1cnn(CCNCc2nc(-c3ccsc3)oc2C)c1	6.342%
CC1CCCN(c2ccccc2OCC(=O)NC2CC2)C1 (stereo not shown)	1.246%
CC(C)[C@H](Nc1cc(-c2ccncc2)nc2ccnn12)C(N)=O	2.166%
CCC(=O)NCC(=O)N(C)C(c1ccc(Cl)cc1)c1cccnc1 (stereo not shown)	12.95%
O=C(CCc1ccsc1)N1CCC(n2cc(CO)nn2)CC1	4.608%
CC(C)(C)n1ncc2c1CCCC2NCc1ccc2c(c1)OCCO2 (stereo not shown)	-2.004%
C[C@@H](NC(=O)c1cnccn1)c1c(-c2ccc(F)cc2)noc1C(=O)O	6.47%
COC(=O)c1cc2n(n1)CCN(C(=O)c1csc(CN(C)C)n1)C2	4.371%
O=C(NC1CCc2c(ccc(=O)n2CC2CC2)C1)c1ccsc1 (stereo not shown)	3.84%
COc1ccc(OCCc2cc(C3CCN(CC(C)C)C3)n[nH]2)cc1 (stereo not shown)	1.061%
Cc1cnn(CC2CN(CCS(=O)(=O)C(F)(F)F)CCO2)c1 (stereo not shown)	1.771%
Cc1cc(C(=O)Nc2cccn(Cc3ccc(F)cc3)c2=O)on1	2.828%
Cc1nn(C)c(N2CCOCC2)c1CNCc1ccc(N(C)C)nc1	0.5554%
COc1c(F)cc(NCC(=O)NC(C)(C#N)C2CC2)cc1F (stereo not shown)	2.437%
O=C(NC1CC1)N1CCOC2(CCCN(c3cccc(F)c3)C2)C1 (stereo not shown)	0.7763%
Cc1csc(N2CCN(C(=O)C(C(C)C)n3cncn3)CC2)n1 (stereo not shown)	0.29%
Cc1cc(C2CCCN(C(=O)COc3ccc(F)cc3F)C2)n[nH]1 (stereo not shown)	0.7219%
NS(=O)(=O)CCN1CCN(c2cc(F)ccc2F)CC1	5.12%
N#Cc1cccc(N2CCCC3(C2)CN(c2nncs2)CCO3)c1 (stereo not shown)	-4.923%
Cc1cccc2c1nc1n2[C@@H](CNC(=O)c2ccccn2)COC1	9.079%
COc1ccc(NC(=O)CCN2CC=C(c3cnn(C)c3)CC2)c(C)c1	6.922%
CC(=O)N1C[C@@H]2C(=O)N(C)C3(CCN(C(=O)C(C)C)CC3)[C@@H]2C1	1.01%
COc1ccccc1OC1CN(C(=O)Cc2c(C)nc3ccccn23)C1	6.931%
Cc1csc(N2CCCN(C(=O)c3ccsc3)CC2)n1	5.685%
O=C(Nc1ccccc1OCCc1ccccn1)NC1CCOCC1	-2.88%
COc1cccnc1-c1ccc(F)c2c1OC(CN)C2 (stereo not shown)	-1.942%

The last 3 entries again:

* Cc1csc(N2CCCN(C(=O)c3ccsc3)CC2)n1 | 5.685%
* O=C(Nc1ccccc1OCCc1ccccn1)NC1CCOCC1 | -2.88%
* COc1cccnc1-c1ccc(F)c2c1OC(CN)C2 (stereo not shown) | -1.942%